This passage reports binding results from patent US20130058962A1 (published 2013).

The chains behind the UniProt entries cited, without tags or fusion partners. Residues count along the entry.
UniProt P0DPI1, residues 2-448: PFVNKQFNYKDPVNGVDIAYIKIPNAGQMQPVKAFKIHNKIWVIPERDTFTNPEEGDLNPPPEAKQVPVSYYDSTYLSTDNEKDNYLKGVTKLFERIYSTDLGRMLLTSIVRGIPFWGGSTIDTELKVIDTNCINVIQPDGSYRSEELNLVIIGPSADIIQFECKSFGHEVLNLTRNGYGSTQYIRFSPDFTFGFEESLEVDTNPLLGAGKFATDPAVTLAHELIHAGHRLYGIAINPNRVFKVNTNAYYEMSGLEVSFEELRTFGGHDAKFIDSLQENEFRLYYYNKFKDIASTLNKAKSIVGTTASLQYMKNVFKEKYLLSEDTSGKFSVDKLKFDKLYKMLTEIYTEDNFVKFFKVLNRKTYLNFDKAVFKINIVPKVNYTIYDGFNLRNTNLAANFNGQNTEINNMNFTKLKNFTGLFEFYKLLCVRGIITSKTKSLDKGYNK

No constants are given. Whether binding was seen depends on the method and setting. Some entries that bind do so weakly or less than the wild type.

The target of the experiment is purified recombinant BoNT/A light chain (Clostridium botulinum) (UniProt P0DPI1). Description: ELISA on BoNT subunits / Western blot of reduced holotoxin. On the technique in general: ELISA stands for enzyme-linked immunosorbent assay.

B1: ciA-D12 (VHH)
VHH: QVQLVESGGGLVQPGGSLRLSCVVSGSDFNTYIMGWYRQVPGKPRELVADITTEGKTNYGGSVKGRFTISRDNAKNTVYLQMFGLKPEDAGNYVCNADWKMGAWTAGDYGIDYWGKGTLVTVSS
With B1, the binding entry is “binds”.
